Data set [1] has as its target T1, f-PlnD (Lactobacillus plantarum C11) (UniProt Q48830).
T1 sequence (looked up, limits assumed): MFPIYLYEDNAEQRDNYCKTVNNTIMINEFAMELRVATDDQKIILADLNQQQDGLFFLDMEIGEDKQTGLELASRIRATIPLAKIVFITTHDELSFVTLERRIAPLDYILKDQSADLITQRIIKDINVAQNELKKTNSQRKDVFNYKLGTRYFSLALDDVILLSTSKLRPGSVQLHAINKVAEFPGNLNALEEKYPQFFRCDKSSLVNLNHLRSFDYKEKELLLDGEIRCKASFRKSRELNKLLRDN
Kind of data set: SPR. Conditions: 1000 nM protein, KD not available, SPR (Biacore 3000, SA chip): 20 mM Tris-HCl pH 8.0, 100 mM NaCl, 5 mM MgCl2, 1 mM EDTA, 0.025% Triton X-100, 25°C, native protein, protein details: N-terminal FLAG, label: biotin on forward strand.

The target of data set [2] is T2, f-PlnC (Lactobacillus plantarum C11) (UniProt Q48829).
T2 sequence (looked up, limits assumed): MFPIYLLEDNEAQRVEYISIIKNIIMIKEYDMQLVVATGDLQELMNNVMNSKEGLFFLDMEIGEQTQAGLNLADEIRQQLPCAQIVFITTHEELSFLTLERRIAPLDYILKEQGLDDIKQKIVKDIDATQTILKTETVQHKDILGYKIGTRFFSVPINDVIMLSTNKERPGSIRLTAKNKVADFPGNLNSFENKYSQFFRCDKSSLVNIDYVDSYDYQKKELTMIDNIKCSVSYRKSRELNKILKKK
Kind of data set: SPR. Conditions: 1000 nM protein, signal <20 RU, KD not available; SPR (Biacore 3000, SA chip): 20 mM Tris-HCl pH 8.0, 100 mM NaCl, 5 mM MgCl2, 1 mM EDTA, 0.025% Triton X-100, 25°C; native protein; protein details: N-terminal FLAG; label: biotin on forward strand. For orientation: SPR reads the build-up and loss of mass on a sensor chip optically.

For at least one entry, the source does not settle the construct or the ends of the probe. Weaker means in comparison with the reference protein, sequence or condition of that experiment. Where a protein sequence is shown, tags need not be part of it.

Take “CATGGTGATTTTAAAATTTATTTAAAAAATGTACGTTAATAGAAATAATT (double strand) [PplnAΔL]”: the binding result in data set [1] (binding reduced 84-90% vs PplnA (range for both regulators)) is “binds more weakly”.
“ACTTTCAAGTTACGTTAAATCGATTAAATAGTACGATAACAAATTTAAAA (double strand) [PplnJ]”: in data set [2], the binding result is on record as “binds more weakly”.
Turning to “ATTGGTATTTGACGTTAAGAGAACGTTTTTTTACTTTTATAATTTTTTCA (double strand) [PplnE]”, the binding result in data set [1] (signal hardly detectable, very poor binding) is listed as “binds more weakly”.

(Values after publication PMC2714321, “DNA binding kinetics of two response regulators, PlnC and PlnD, from the bacteriocin regulon of Lactobacillus plantarum C11”.)
